Measurements reported in PMC12554172, “Systematic analysis of the RGS2 degron reveals characteristics of substrate recognition by the F-box protein FBXO44” (The Journal of Biological Chemistry, 2025).
These are yes or no findings as the source states them, for the method shown. Binding seen in cells or lysates may run through a third protein. Some entries that bind do so weakly or less than the wild type. Where a sequence is shown, tags or fusion partners need not be part of it.

T1: RGS2^WT-HA (UniProt P41220)
T1 sequence: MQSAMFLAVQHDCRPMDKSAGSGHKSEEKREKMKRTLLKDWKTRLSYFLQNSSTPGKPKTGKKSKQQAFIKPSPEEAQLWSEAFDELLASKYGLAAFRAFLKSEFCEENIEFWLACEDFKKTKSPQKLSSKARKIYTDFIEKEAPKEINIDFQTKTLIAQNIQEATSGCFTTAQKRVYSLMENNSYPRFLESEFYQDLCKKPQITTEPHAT


Molecular target: T1, RGS2^WT-HA
Assay: co-IP; HEK-293T cells transiently transfected with RGS2-HA and FLAG-FBXO44 (WT or mutants); RIPA lysate; IP with rabbit anti-HA and protein A agarose, 2 h at 4 °C; bands normalised to input

| Binder | binding |
| --- | --- |
| FLAG-FBXO44 (WT) (protein, UniProt Q9H4M3-1 1-255) MAVGNINELPENILLELFTHVPARQLLLNCRLVCSLWRDLIDLVTLWKRKCLREGFITEDWDQPVADWKIFYFLRSLHRNLLHNPCAEEGFEFWSLDVNGGDEWKVEDLSRDQRKEFPNDQVKKYFVTSYYTCLKSQVVDLKAEGYWEELMDTTRPDIEVKDWFAARPDCGSKYQLCVQLLSSAHAPLGTFQPDPATIQQKSDAKWREVSHTFSNYPPGVRYIWFQHGGVDTHYWAGWYGPRVTNSSITIGPPLP | binds |
| FLAG-FBXO44^Y234A (protein, UniProt Q9H4M3-1 1-255) MAVGNINELPENILLELFTHVPARQLLLNCRLVCSLWRDLIDLVTLWKRKCLREGFITEDWDQPVADWKIFYFLRSLHRNLLHNPCAEEGFEFWSLDVNGGDEWKVEDLSRDQRKEFPNDQVKKYFVTSYYTCLKSQVVDLKAEGYWEELMDTTRPDIEVKDWFAARPDCGSKYQLCVQLLSSAHAPLGTFQPDPATIQQKSDAKWREVSHTFSNYPPGVRYIWFQHGGVDTHAWAGWYGPRVTNSSITIGPPLP | binds |
